Source: PMC4264749, “Phlebotomy Treatment for Elimination of Perfluoroalkyl Acids in a Highly Exposed Family: A Retrospective Case-Series” (PLoS ONE, 2014)
The source gives many values for each of these; only a part stands here.

Test: Serum PFAA concentrations in family members during intermittent phlebotomy (HPLC-MS/MS)
Type: in vivo, human
Excerpt: After receiving informed consent, intermittent phlebotomy was undertaken at an overall rate (Table 2) that was equal to or less than the maximum rate of what is done for routine blood donations at the Canadian Blood Services: ∼500 ccs of whole blood every 56 days. Frequency and timing of blood removal was not consistent between family members because of their personal availability, success at each time of venesection, and compliance of each participant. […] Mineral supplementation was discussed and was taken by each participant.
All serum samples were submitted to ALS Laboratories (Edmonton, AB) for quantitative analysis of PFAAs (see Supporting Information, S1 Table). Samples were extracted by solid phase extraction and concentrations of PFHxS, PFOS, and PFOA were determined using high performance liquid chromatography/tandem mass spectrometry. Formic acid (0.1 M) along with a mixture of isotopically labeled PFAAs (Wellington Laboratories, Guelph, Ontario) were added to 1.0 mL of serum. The mixture was vortexed, sonicated, and subjected to solid phase extraction. The extract was concentrated to 100 uL and an instrument performance internal standard was added along with 200 uL of 90% 20 mM aqueous acetic acid/10% methanol. Procedural blanks were run with each set of samples, and method limits of quantification (LOQ) were 0.5 ng/mL for each analyte. For the few PFAA levels that fell below this LOQ (shown as hollow circles in Figs. 1–3), LOQ/√2 (i.e. 0.35 ng/mL) was substituted for purposes of data analysis. PFHxS, PFOS, and PFOA levels in all participating family members were >LOQ throughout the intervention except for 3 PFOS measurements out of 16 total measurements in the 3rd child and one PFOA measurement out of 9 total measurements in the […]. Written informed consent was given by participants (or parents in the case of children) for their clinical records to be used in this study.

[1] = 3rd Child, sampling date 2009.10.11
[2] = 3rd Child, sampling date 2009.12.16
[3] = 3rd Child, sampling date 2009.6.1
[4] = 3rd Child, sampling date 2009.7.4
[5] = 3rd Child, sampling date 2009.8.7
[6] = 3rd Child, sampling date 2009.9.7
[7] = 3rd Child, sampling date 2010.1.24
[8] = 3rd Child, sampling date 2013.10.27
[9] = 3rd Child, sampling date 2013.5.5
[10] = 3rd Child, sampling date 2013.7.25
[11] = 3rd Child, sampling date 2013.9.8
[12] = 4th Child, sampling date 2009.10.25
[13] = 4th Child, sampling date 2009.10.4
[14] = 4th Child, sampling date 2009.12.22
[15] = 4th Child, sampling date 2009.6.2
[16] = 4th Child, sampling date 2009.6.26
[17] = 4th Child, sampling date 2009.8.7
[18] = 4th Child, sampling date 2009.9.2
[19] = 4th Child, sampling date 2010.1.24
[20] = 4th Child, sampling date 2010.4.29
[21] = 4th Child, sampling date 2011.10.2
[22] = 4th Child, sampling date 2011.11.29
[23] = 4th Child, sampling date 2011.5.23
[24] = 4th Child, sampling date 2011.6.18
[25] = 4th Child, sampling date 2012.1.8
[26] = 4th Child, sampling date 2012.12.23
[27] = 4th Child, sampling date 2012.3.5
[28] = 4th Child, sampling date 2012.5.22
[29] = 4th Child, sampling date 2013.10.27
[30] = 4th Child, sampling date 2013.3.30
[31] = 4th Child, sampling date 2013.5.25
[32] = 4th Child, sampling date 2013.7.23
[33] = 4th Child, sampling date 2013.9.8

SMILES	Serum concentration [12] [ng/mL]	Serum concentration [13] [ng/mL]	Serum concentration [14] [ng/mL]	Serum concentration [15] [ng/mL]	Serum concentration [16] [ng/mL]	Serum concentration [17] [ng/mL]	Serum concentration [18] [ng/mL]	Serum concentration [20] [ng/mL]	Serum concentration [21] [ng/mL]	Serum concentration [22] [ng/mL]	Serum concentration [23] [ng/mL]	Serum concentration [24] [ng/mL]	Serum concentration [25] [ng/mL]	Serum concentration [26] [ng/mL]	Serum concentration [27] [ng/mL]	Serum concentration [28] [ng/mL]	Serum concentration [29] [ng/mL]	Serum concentration [30] [ng/mL]	Serum concentration [31] [ng/mL]	Serum concentration [32] [ng/mL]	further results
O=C(O)C(F)(F)C(F)(F)C(F)(F)C(F)(F)C(F)(F)C(F)(F)C(F)(F)F [PFOA, perfluorooctanoic acid]	2.5	4.1	4.0	6.8	6.0	4.7	5.6	3.5	2.2	1.6	2.4	2.2	2.0	1.5	2.4	2.3	1.3	1.7	1.3	1.1	Serum concentration [1]: 6.1 ng/mL; Serum concentration [2]: 3.5 ng/mL; Serum concentration [3]: 8.2 ng/mL; Serum concentration [4]: 7.7 ng/mL; Serum concentration [5]: 6.9 ng/mL; Serum concentration [6]: 7.8 ng/mL; Serum concentration [7]: 5.1 ng/mL; Serum concentration [8]: 1.8 ng/mL; Serum concentration [9]: 1.7 ng/mL; Serum concentration [10]: 1.7 ng/mL; Serum concentration [11]: 2.0 ng/mL; Serum concentration [19]: 2.0 ng/mL; Serum concentration [33]: 1.3 ng/mL
O=S(=O)(O)C(F)(F)C(F)(F)C(F)(F)C(F)(F)C(F)(F)C(F)(F)F [PFHxS, Perfluorohexane sulfonate]	70.5	69.6	46.5	167	156	127	101	69.6	70.2	23.3	74.4	89	42	92.2	45.6	47.7	29.9	47.8	33.3	26.9	Serum concentration [1]: 207.0 ng/mL; Serum concentration [2]: 65.1 ng/mL; Serum concentration [3]: 293.0 ng/mL; Serum concentration [4]: 271.0 ng/mL; Serum concentration [5]: 224.0 ng/mL; Serum concentration [6]: 215.0 ng/mL; Serum concentration [7]: 92.1 ng/mL; Serum concentration [8]: 48.3 ng/mL; Serum concentration (3rd Child, sampling date 2013.2.5): 66.6 ng/mL; Serum concentration (3rd Child, sampling date 2013.3.30): 67.4 ng/mL; Serum concentration [9]: 44.1 ng/mL; Serum concentration [10]: 34.8 ng/mL; Serum concentration [11]: 60.6 ng/mL; Serum concentration [19]: 30.6 ng/mL; Serum concentration [33]: 31.2 ng/mL
O=S(=O)(O)C(F)(F)C(F)(F)C(F)(F)C(F)(F)C(F)(F)C(F)(F)C(F)(F)C(F)(F)F [PFOS, perfluoroctane sulfonate]	29.9	45.3	37.5	62.4	42.3	52.5	54.0	40.9	1.2	4.0	4.9	4.0	9.2	3.7	11.3	11.7	5.0	3.1	5.6	4.4	Serum concentration [33]: 4.7 ng/mL
